Assay results as given in patent publication US20030187000A1, “Inhibitors for de novo-RNA polymerases and methods of identifying targets for same” (priority 2002, published 2003).
Some entries share one result that the patent states for a list of compounds.

By UniProt entry, the sequences of proteins in these tests, tags left out. Residues count along the entry.
UniProt P26663, 2420-3010: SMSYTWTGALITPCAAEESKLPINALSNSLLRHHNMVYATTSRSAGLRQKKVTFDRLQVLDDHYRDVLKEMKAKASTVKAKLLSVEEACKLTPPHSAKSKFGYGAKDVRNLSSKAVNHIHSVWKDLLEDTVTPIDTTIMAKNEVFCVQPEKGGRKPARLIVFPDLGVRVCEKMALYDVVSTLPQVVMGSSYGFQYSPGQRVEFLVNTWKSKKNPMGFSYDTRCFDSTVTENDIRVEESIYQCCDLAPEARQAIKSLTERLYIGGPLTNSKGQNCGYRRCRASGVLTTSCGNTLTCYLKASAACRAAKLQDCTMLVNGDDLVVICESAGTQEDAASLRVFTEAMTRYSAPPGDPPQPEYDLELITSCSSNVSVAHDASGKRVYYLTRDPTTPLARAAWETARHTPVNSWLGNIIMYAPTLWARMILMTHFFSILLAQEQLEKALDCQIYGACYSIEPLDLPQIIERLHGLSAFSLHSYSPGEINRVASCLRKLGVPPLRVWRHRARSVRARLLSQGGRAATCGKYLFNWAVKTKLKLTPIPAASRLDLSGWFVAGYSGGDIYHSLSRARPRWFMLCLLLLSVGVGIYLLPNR

Target: T1, HCV NS5B polymerase (Hepatitis C virus genotype 1b, UniProt P26663)
T1 construct: the RNA dependent RNA polymerase from hepatitis C virus (NS5B)
Experiment: Soaking of NS5B crystals with cysteine-modifying reagents, X-ray structure determination
Assay type: binding
Details: crystals incubated with 1 mM to 5 mM compound for 4 to 8 hours; relative to Cys14 and Cys223

COS(C)(=O)=S (stereo not shown) [MMTS, methyl methanethiosulfonate]
selective modification of Cys366 over all other cysteine residues: at least 80%
